# Results: publication PMC9641203
# Tested on: T1, EdeB (ParB family protein) (Brevibacillus brevis X23)
# T1 sequence (looked up): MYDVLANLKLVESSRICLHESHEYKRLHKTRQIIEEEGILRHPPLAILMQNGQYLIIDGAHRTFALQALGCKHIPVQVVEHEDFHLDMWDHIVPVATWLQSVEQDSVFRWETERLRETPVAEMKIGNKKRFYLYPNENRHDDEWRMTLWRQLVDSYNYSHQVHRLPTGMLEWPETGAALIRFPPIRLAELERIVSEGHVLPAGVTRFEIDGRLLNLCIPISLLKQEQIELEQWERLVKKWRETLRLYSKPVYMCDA
# Assay: EMSA
# Conditions: salmon sperm DNA as nonspecific competitor, 5 mM MgCl2, 50 mM EDTA (so in the source); 10 mM Tris pH 7.5, 5 mM MgCl2, 50 mM EDTA, 60 mM KCl, 10 mM DTT, 10% glycerol, sheared salmon sperm DNA, 20 uL, on ice 10 min; 8% TBE PAGE, 0.5x TBE; recombinant protein; residues 1-256; protein details: C-terminal His6 (from primer edeB-R, pET28a); label: 6-FAM 5' end; probe letters rebuilt from the primers and the genome
sequence,measurement,value
CCATTCTATGCAGCGCTAGAAAATGGAAAAAAGAGATGGAATTCATCTAATTTTCAGAAATAACATTTAATGGAAAATTCATTTGACACTATAGAAGAGTCATCGATATAGTTGGGATGGAAGTATTTGTAATCAATTAGATTTTTTGCCATATCCGAATTGTGATTACATCTGCACAATTCCGAAAGGGGGGAAATGCATTGCATCAGGATAAGAAGC (double strand) [edePro (ede BGC promoter)],binding result,binds

# Construct, isoform or probe ends are uncertain for at least one entry. Protein sequences can lack the tags named with them.
